# Reference: PubChem BioAssay AID540276 (National Center for Advancing Translational Sciences (NCATS), 2011)
# The campaign covered roughly 300,000 compounds. About 5,400 (1.8%) were called active. Inconclusive means that the source gave no clear call. Such entries were picked first, then a sample of the others. Calls follow the shape of the full dose curve; tested in HEK293 cells. Where the call is inconclusive, the potency comes from a doubtful curve fit.
# Assay: qHTS for inhibitors of binding or entry into cells for Marburg Virus
# Conditions: Marburg virus pseudotyped entry inhibition, cell reporter; series mostly up to 37.8 µM
# Potency is read from the fitted curve at half-maximal effect.
row,SMILES,Potency
1,Cc1ccc(C(=O)c2cc([N+](=O)[O-])ccc2N2CCOCC2)cc1,"inconclusive: 1.12 µM [inhibitor, partial curve, poor fit]"
2,Fc1ccc(C(c2nnnn2C2CCCC2)N(Cc2ccco2)CC2CCCO2)cc1 (configuration not stated),"inconclusive: 15.8 µM [inhibitor, single point]"
3,Cc1ccc(S(=O)(=O)N2CCC[C@H]2C(=O)Nc2ccccc2Cl)cc1,"inconclusive: 35.5 µM [inhibitor, single point]"
4,O=C(Cc1ccccc1C(=O)O)Nc1cccc2ccccc12,"inconclusive: 14.1 µM [activator, partial curve, poor fit]"
5,CCc1ccc2[nH]c(=O)c(C3C(C#N)=C(N)Oc4c3ccc3cccnc43)cc2c1 (configuration not stated),"inconclusive: 29.1 µM [inhibitor, single point]"
6,CC1Cc2ccccc2N1C(=O)CN1CCC(n2nnc3cc(C(F)(F)F)ccc32)CC1 (configuration not stated),"inconclusive: 22.4 µM [inhibitor, single point]"
7,O=C(Nc1ccn(Cc2c(F)c(F)cc(F)c2F)n1)c1cccc(Cn2cc([N+](=O)[O-])cn2)c1,"inconclusive: 25.9 µM [inhibitor, single point]"
8,COC(=O)c1ccc(Cl)c(NC(=O)CSc2nnc(-c3ccncc3)o2)c1,"inconclusive: 2.82 µM [inhibitor, single point]"
9,CN(C)c1ccc(/C=C/C(=O)c2ccc(O)cc2)cc1,"inconclusive: 35.5 µM [inhibitor, single point]"
10,COc1ccccc1N1CCN(C(=O)C2c3ccccc3Oc3ccccc32)CC1,"inconclusive: 5.01 µM [inhibitor, single point]"
11,CCN(CC)S(=O)(=O)c1ccc(S(=O)(=O)Nc2cc3c(cc2C(C)=O)OCO3)cc1,inactive
12,Cc1cc([N+](=O)[O-])ccc1NC(=O)CSc1nccn1C,"inconclusive: 6.31 µM [activator, single point]"
13,Cc1n[nH]c(C)c1S(=O)(=O)N1CCC(C(=O)O)CC1,"inconclusive: 11.2 µM [activator, partial curve, poor fit]"
14,COc1ccc(NC(=O)CSc2ccccc2)cn1,"inconclusive: 20 µM [activator, single point]"
15,COc1ccc(C2NC3=C(CCC3)C3(C#N)C4(N=C(N)C23C#N)OCCO4)cc1 (configuration not stated),inactive
16,CCn1c(SCc2ccccc2Cl)nc2nc3c(cc2c1=O)CCCC3,"inconclusive: 12.6 µM [inhibitor, single point]"
17,O=C(c1c(Cl)nc2sccn12)N1CCN(c2cccc(Cl)c2)CC1,"inconclusive: 8.91 µM [inhibitor, partial curve, poor fit]"

# Copied from the list.
# Fc1ccc(C(c2nnnn2C2CCCC2)N(Cc2ccco2)CC2CCCO2)cc1 (configuration not stated) | Potency: inconclusive: 15.8 µM [inhibitor, single point]
# CC1Cc2ccccc2N1C(=O)CN1CCC(n2nnc3cc(C(F)(F)F)ccc32)CC1 (configuration not stated) | Potency: inconclusive: 22.4 µM [inhibitor, single point]
